Results deposited as PubChem BioAssay AID1259308 (NCATS, 2017).

Purpose: 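Knock-downs that increase output of a recombinant reporter protein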 (primary screen)
System: human HEK293 embryonic kidney cells stably expressing firefly luciferase (HEK-CMV-Luc2-Hygro)
Knock-down reagent: single siRNA against human genes, 0.8 pmol siRNA per well
Duration: 72 h
Detection: 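Reporter luminescence and viable-cell signal on separate replicate plates, given as percent of non-targeting control and median/MAD z-scores, plus per-cell luciferase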
Direction: total luciferase, z-score and total luciferase, % of control: higher = more reporter protein produced; luciferase per cell, z-score: higher = more reporter output per viable cell; viable cells, % of control: higher = more viable cells
Call rule: 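An siRNA counts as active if its total luciferase robust z-score exceeds 3; genes with two or more such siRNAs out of three were retested with fresh siRNAs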
Calls: active = raised luciferase; inactive = no rise
In all, the deposit lists about 59,000 reagents; this is a part drawn at random. About 1,510 of all reagents (2.6%) were called active. 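Calls use total luciferase alone and ignore viability, so some active siRNAs may act by altering cell number.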 Reagents against one gene are numbered here.

| total luciferase, z-score | total luciferase, % of control | luciferase per cell, z-score | viable cells, % of control | activity call | target | reagent no. |
| --- | --- | --- | --- | --- | --- | --- |
| -1.03 | 61.5 | -1.32 | 97.3 | inactive | MEF2A | 1 |
| 0.308 | 88 | 0.314 | 90.6 | inactive | MEF2A | 2 |
| 0.118 | 84.2 | 0.422 | 84.2 | inactive | MEF2A | 3 |
| -0.0314 | 81.3 | -0.2 | 95.7 | inactive | TK2 | 1 |
| 0.0638 | 83.2 | -0.0158 | 93.3 | inactive | TK2 | 2 |
| -0.569 | 70.6 | -0.723 | 95.4 | inactive | TK2 | 3 |
| -0.249 | 76.9 | -0.43 | 96.3 | inactive | NOX3 | 1 |
| -0.832 | 65.3 | -1.07 | 96.8 | inactive | NOX3 | 2 |
| -0.476 | 72.4 | -0.718 | 97.8 | inactive | NOX3 | 3 |
| -0.304 | 75.8 | -0.426 | 94.8 | inactive | PI16 | 1 |
| -0.877 | 64.4 | -0.57 | 83.7 | inactive | PI16 | 2 |
| 0.409 | 90 | 0.28 | 93.4 | inactive | PI16 | 3 |
| -0.0884 | 80.1 | -0.446 | 101 | inactive | CXCL3 | 1 |
| 0.26 | 87.1 | -0.209 | 103 | inactive | CXCL3 | 2 |
| 0.0113 | 82.1 | -0.193 | 96.5 | inactive | CXCL3 | 3 |
| -0.694 | 68.1 | -0.409 | 84.7 | inactive | CSNK2A1 | 1 |
| 0.615 | 94.1 | -0.209 | 111 | inactive | CSNK2A1 | 2 |
| 1.03 | 102 | 0.0615 | 113 | inactive | CSNK2A1 | 3 |
| 0.443 | 90.7 | 1.26 | 72.7 | inactive | NPAP1 | 1 |
| -0.355 | 74.8 | -0.681 | 100 | inactive | NPAP1 | 2 |
| 0.313 | 88.1 | -0.518 | 113 | inactive | NPAP1 | 3 |
| -0.59 | 70.2 | -0.323 | 85.3 | inactive | ZNF746 | 1 |
| 3.28 | 147 | 2.85 | 77.6 | active | ZNF746 | 2 |
| -0.907 | 63.9 | -0.615 | 83.9 | inactive | ZNF746 | 3 |
| 1.83 | 118 | 1.91 | 79.9 | inactive | KRABD2 | 1 |
| 0.197 | 85.8 | 1.2 | 70 | inactive | KRABD2 | 2 |
| 0.225 | 86.4 | -0.164 | 101 | inactive | KRABD2 | 3 |
| 0.491 | 91.7 | 0.771 | 83.6 | inactive | CDC42SE2 | 1 |
| 0.628 | 94.4 | 1.35 | 73.9 | inactive | CDC42SE2 | 2 |
| 1.46 | 111 | 2.32 | 67.3 | inactive | CDC42SE2 | 3 |
| -0.811 | 65.8 | -0.391 | 81.4 | inactive | SRSF5 | 1 |
| -0.576 | 70.4 | -0.532 | 90.5 | inactive | SRSF5 | 2 |
| 3.81 | 158 | 2.13 | 101 | active | SRSF5 | 3 |
| 1.13 | 104 | 1.05 | 88.6 | inactive | NDRG4 | 1 |
| -0.368 | 74.6 | -0.249 | 89 | inactive | NDRG4 | 2 |
| -0.144 | 79 | 0.83 | 71 | inactive | NDRG4 | 3 |
| 0.694 | 95.7 | 2.19 | 60.1 | inactive | LOC648934 | 1 |
| -2.07 | 40.8 | -2.07 | 78.5 | inactive | LOC648934 | 2 |
| -2.01 | 41.9 | -1.04 | 61.5 | inactive | LOC648934 | 3 |

Laid out differently: 2 of the entries above
total luciferase, z-score	total luciferase, % of control	luciferase per cell, z-score	viable cells, % of control	activity call	target	reagent no.
0.694	95.7	2.19	60.1	inactive	LOC648934	1
-2.07	40.8	-2.07	78.5	inactive	LOC648934	2
